Data source: PubChem BioAssay AID686938 (Drosophila RNAi Screening Center, 2013)

Assay: 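Looking for CRAC channel components and the factors controlling them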 (primary screen)
Cell system: Drosophila S2R+ cells
Knock-down reagent: long dsRNA against Drosophila genes, about 0.25 µg dsRNA per well, roughly 10,000 cells
Timing: 5 days of knock-down before the calcium assay
Challenge: thapsigargin (SERCA pump blocker) to empty calcium stores; entry signal taken 4 min after adding it
Read-out: 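Duplicate raw fluo-4 intensities per well from a plate reader, at rest and four minutes after thapsigargin emptied calcium stores; entry-to-rest ratio filled for only some wells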
Scale: calcium entry signal: higher = stronger calcium signal after store depletion; resting calcium signal: higher = higher resting calcium signal
Hit rule: 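Hit if the duplicate-averaged plate z-score for entry over resting signal is under −3; wells with weak total dye signal (Fmax z < −2) or more than 5 off-targets removed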
Meaning of the calls: active = strongly reduced calcium entry; inactive = no strong reduction
The screen tested about 23,000 reagents; shown is a random part of those that have a named target and a result. Over the whole deposit, 75 (0.33%) were called active. 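Raw plate signals without normalisation; calls rest on plate z-scores that were not deposited; ratio present for only 364 wells.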 Not given: the dose of the treatment.

pen-2 [DRSC05722]: calcium entry signal, replicate 1 (fluorescence units) = 2.52e7; calcium entry signal, replicate 2 (fluorescence units) = 5.65e7; resting calcium signal, replicate 1 (fluorescence units) = 1.32e7; resting calcium signal, replicate 2 (fluorescence units) = 2.66e7; activity call = inactive
CG12479 [DRSC19459]: calcium entry signal, replicate 1 (fluorescence units) = 2.94e7; calcium entry signal, replicate 2 (fluorescence units) = 2.51e7; resting calcium signal, replicate 1 (fluorescence units) = 1.46e7; resting calcium signal, replicate 2 (fluorescence units) = 1.13e7; activity call = inactive
Polr3F [DRSC15785]: calcium entry signal, replicate 1 (fluorescence units) = 2.73e7; calcium entry signal, replicate 2 (fluorescence units) = 3.18e7; resting calcium signal, replicate 1 (fluorescence units) = 5.40e7; resting calcium signal, replicate 2 (fluorescence units) = 1.38e7; activity call = inactive
dup [DRSC07088]: calcium entry signal, replicate 1 (fluorescence units) = 2.21e7; calcium entry signal, replicate 2 (fluorescence units) = 5.35e7; resting calcium signal, replicate 1 (fluorescence units) = 1.58e7; resting calcium signal, replicate 2 (fluorescence units) = 2.39e7; activity call = inactive
Acat2 [DRSC08630]: calcium entry signal, replicate 1 (fluorescence units) = 3.03e7; calcium entry signal, replicate 2 (fluorescence units) = 3.40e7; resting calcium signal, replicate 1 (fluorescence units) = 1.55e7; resting calcium signal, replicate 2 (fluorescence units) = 1.47e7; activity call = inactive
hrg [DRSC07502]: calcium entry signal, replicate 1 (fluorescence units) = 5.19e7; calcium entry signal, replicate 2 (fluorescence units) = 5.46e7; resting calcium signal, replicate 1 (fluorescence units) = 3.43e7; resting calcium signal, replicate 2 (fluorescence units) = 3.51e7; activity call = active
CG30383 [DRSC05062]: calcium entry signal, replicate 1 (fluorescence units) = 2.86e7; calcium entry signal, replicate 2 (fluorescence units) = 3.39e7; resting calcium signal, replicate 1 (fluorescence units) = 1.47e7; resting calcium signal, replicate 2 (fluorescence units) = 1.65e7; activity call = inactive
CG34236 [DRSC05435]: calcium entry signal, replicate 1 (fluorescence units) = 5.03e7; calcium entry signal, replicate 2 (fluorescence units) = 4.17e7; resting calcium signal, replicate 1 (fluorescence units) = 2.38e7; resting calcium signal, replicate 2 (fluorescence units) = 1.74e7; activity call = inactive
LManIV [DRSC03222]: calcium entry signal, replicate 1 (fluorescence units) = 2.73e7; calcium entry signal, replicate 2 (fluorescence units) = 3.99e7; resting calcium signal, replicate 1 (fluorescence units) = 1.23e7; resting calcium signal, replicate 2 (fluorescence units) = 1.75e7; activity call = inactive
CG4712 [DRSC06882]: calcium entry signal, replicate 1 (fluorescence units) = 2.56e7; calcium entry signal, replicate 2 (fluorescence units) = 4.29e7; resting calcium signal, replicate 1 (fluorescence units) = 1.38e7; resting calcium signal, replicate 2 (fluorescence units) = 1.73e7; activity call = inactive
Fbp1 [DRSC11166]: calcium entry signal, replicate 1 (fluorescence units) = 5.70e7; calcium entry signal, replicate 2 (fluorescence units) = 6.74e7; resting calcium signal, replicate 1 (fluorescence units) = 2.29e7; resting calcium signal, replicate 2 (fluorescence units) = 2.64e7; activity call = inactive
CG4483 [DRSC10426]: calcium entry signal, replicate 1 (fluorescence units) = 4.62e7; calcium entry signal, replicate 2 (fluorescence units) = 3.61e7; resting calcium signal, replicate 1 (fluorescence units) = 2.26e7; resting calcium signal, replicate 2 (fluorescence units) = 1.72e7; activity call = inactive
SLO2 [DRSC06212]: calcium entry signal, replicate 1 (fluorescence units) = 2.40e7; calcium entry signal, replicate 2 (fluorescence units) = 4.60e7; resting calcium signal, replicate 1 (fluorescence units) = 1.61e7; resting calcium signal, replicate 2 (fluorescence units) = 1.97e7; activity call = inactive
SLO2 [DRSC06214]: calcium entry signal, replicate 1 (fluorescence units) = 4.17e7; calcium entry signal, replicate 2 (fluorescence units) = 3.96e7; resting calcium signal, replicate 1 (fluorescence units) = 1.79e7; resting calcium signal, replicate 2 (fluorescence units) = 1.69e7; activity call = inactive
SLO2 [DRSC06216]: calcium entry signal, replicate 1 (fluorescence units) = 4.30e7; calcium entry signal, replicate 2 (fluorescence units) = 3.31e7; resting calcium signal, replicate 1 (fluorescence units) = 1.89e7; resting calcium signal, replicate 2 (fluorescence units) = 1.64e7; activity call = inactive
SLO2 [DRSC06218]: calcium entry signal, replicate 1 (fluorescence units) = 4.43e7; calcium entry signal, replicate 2 (fluorescence units) = 4.12e7; resting calcium signal, replicate 1 (fluorescence units) = 2.06e7; resting calcium signal, replicate 2 (fluorescence units) = 1.86e7; activity call = inactive
SLO2 [DRSC06219]: calcium entry signal, replicate 1 (fluorescence units) = 3.04e7; calcium entry signal, replicate 2 (fluorescence units) = 4.39e7; resting calcium signal, replicate 1 (fluorescence units) = 1.91e7; resting calcium signal, replicate 2 (fluorescence units) = 1.85e7; activity call = inactive
SLO2 [DRSC23225]: calcium entry signal, replicate 1 (fluorescence units) = 3.08e7; calcium entry signal, replicate 2 (fluorescence units) = 2.69e7; resting calcium signal, replicate 1 (fluorescence units) = 1.57e7; resting calcium signal, replicate 2 (fluorescence units) = 1.21e7; activity call = inactive
ppk19 [DRSC15321]: calcium entry signal, replicate 1 (fluorescence units) = 3.61e7; calcium entry signal, replicate 2 (fluorescence units) = 3.88e7; resting calcium signal, replicate 1 (fluorescence units) = 1.87e7; resting calcium signal, replicate 2 (fluorescence units) = 1.72e7; activity call = inactive
Lkr [DRSC09754]: calcium entry signal, replicate 1 (fluorescence units) = 3.94e7; calcium entry signal, replicate 2 (fluorescence units) = 7.17e7; resting calcium signal, replicate 1 (fluorescence units) = 1.82e7; resting calcium signal, replicate 2 (fluorescence units) = 2.80e7; activity call = inactive
CG30091 [DRSC21809]: calcium entry signal, replicate 1 (fluorescence units) = 3.39e7; calcium entry signal, replicate 2 (fluorescence units) = 3.49e7; resting calcium signal, replicate 1 (fluorescence units) = 1.92e7; resting calcium signal, replicate 2 (fluorescence units) = 1.62e7; activity call = inactive

Sorted by “resting calcium signal, replicate 1 (fluorescence units)” (low to high): 2 of the entries above.
Acat2 [DRSC08630]: calcium entry signal, replicate 1 (fluorescence units) = 3.03e7; calcium entry signal, replicate 2 (fluorescence units) = 3.40e7; resting calcium signal, replicate 1 (fluorescence units) = 1.55e7; resting calcium signal, replicate 2 (fluorescence units) = 1.47e7; activity call = inactive
hrg [DRSC07502]: calcium entry signal, replicate 1 (fluorescence units) = 5.19e7; calcium entry signal, replicate 2 (fluorescence units) = 5.46e7; resting calcium signal, replicate 1 (fluorescence units) = 3.43e7; resting calcium signal, replicate 2 (fluorescence units) = 3.51e7; activity call = active
